# Record: PubChem BioAssay AID743121 (NCATS, 2013)
# Assay: 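Partners whose loss is lethal together with topoisomerase I blockade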 (primary screen)
# Cells: MDA-MB-231 cells, a human breast cancer line
# Reagent: single siRNA against human genes, 20 nM siRNA (0.8 pmol per well)
# Time to read-out: 120 h (drug added 48 h after transfection, read 72 h later)
# Challenge: camptothecin 20 nM (about EC30) for 72 h; vehicle 0.1% DMSO in parallel plates
# Read-out: 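Cell viability by ATP luminescence (CellTiter-Glo) as % of non-targeting siRNA wells, and the log2 ratio of viability without drug over viability with camptothecin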
# Scale: log2 vehicle/camptothecin viability: higher = stronger sensitisation to camptothecin
# Active means: 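Active genes have an RSA gene-level p-value below 0.001, computed from the ratios of their separate siRNAs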
# Shown is an unselected part of about 26,000 deposited reagents. In the full data, 167 (0.63%) are marked active. 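Calls are per gene from RSA p-values that are not deposited; an individual active-marked siRNA can sensitise only weakly.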 The numbers tell different reagents against one gene apart. Not all columns of the deposit are shown.
Target gene,siRNA no.,log2 vehicle/camptothecin viability,call
STAT5B,1,-0.121,inactive
STAT5B,2,-0.022,inactive
STAT5B,3,-0.35,inactive
STAT5B,4,-0.403,inactive
ACTR2,1,-0.211,inactive
ACTR2,2,-0.0223,inactive
ACTR2,3,-0.173,inactive
ACTR2,4,-0.679,inactive
USF1,1,-0.427,inactive
USF1,2,-0.0978,inactive
USF1,3,-0.233,inactive
OR1C1,1,0.0996,inactive
OR1C1,2,-0.171,inactive
OR1C1,3,-0.196,inactive
OR1C1,4,0.131,inactive
SPSB3,1,-0.525,inactive
SPSB3,2,-0.121,inactive
SPSB3,3,0.0163,inactive
SPSB3,4,-0.112,inactive
MAPK13,1,-0.507,inactive
MAPK13,2,-0.0985,inactive
MAPK13,3,-0.229,inactive
MAPK13,4,0.379,inactive
PLCZ1,1,-0.332,inactive
PLCZ1,2,-0.0994,inactive
PLCZ1,3,-0.128,inactive
PLCZ1,4,-0.141,inactive
SOX2-OT,1,-0.123,inactive
SOX2-OT,2,-0.0962,inactive
GRIK2,1,-0.0713,inactive
GRIK2,2,-0.115,inactive
GRIK2,3,-0.513,inactive
IFNA7,1,-0.134,inactive
IFNA7,2,-0.293,inactive
IFNA7,3,0.0437,inactive
CUL9,1,-0.0744,inactive
CUL9,2,0.186,inactive
CUL9,3,0.139,inactive
UHMK1,1,-0.0604,inactive
UHMK1,2,0.0387,inactive
UHMK1,3,0.125,inactive
UHMK1,4,-0.0109,inactive
RNF146,1,-0.537,inactive
RNF146,2,0.658,inactive
RNF146,3,-0.119,inactive

4 entries already listed, ordered by “log2 vehicle/camptothecin viability”, low to high:
Target gene,siRNA no.,log2 vehicle/camptothecin viability,call
SPSB3,1,-0.525,inactive
SPSB3,2,-0.121,inactive
SPSB3,3,0.0163,inactive
OR1C1,4,0.131,inactive

Continued:
Target gene,siRNA no.,log2 vehicle/camptothecin viability,call
TBCK,1,-0.216,inactive
TBCK,2,-0.179,inactive
TBCK,3,-0.378,inactive
GNG3,1,-0.156,inactive
GNG3,2,-0.172,inactive
GNG3,3,-0.299,inactive
GNG3,4,0.121,inactive
NALCN,1,-0.357,inactive
NALCN,2,0.0522,inactive
NALCN,3,-0.0647,inactive
NALCN,4,0.0172,inactive
SPHK2,1,-0.188,inactive
SPHK2,2,0.0304,inactive
SPHK2,3,0.723,inactive
SPHK2,4,-0.581,inactive
TBXAS1,1,-0.454,inactive
TBXAS1,2,-0.0505,inactive
TBXAS1,3,-0.387,inactive
TBXAS1,4,-0.247,inactive
RAD51B,1,0.387,inactive
RAD51B,2,-0.129,inactive
RAD51B,3,-0.137,inactive
RAD51B,4,-0.412,inactive
